PubChem BioAssay AID504791, Drosophila RNAi Screening Center – 2011
In all, the deposit lists about 23,000 reagents; this is a random part of those with a known target gene and a result. Of all reagents, 199 (0.86%) are marked active. 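Plate-scaled ratios behind the calls are not deposited; printed light signals are raw; many rows marked increased or decreased are still called inactive.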 Entries without a mark were called inactive. Names joined by + are all predicted targets of the reagent. No sequences are given here. Not given: the direction of the score.

Screen: 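Genes whose knock-down strengthens or weakens small-RNA reporter silencing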 (primary screen)
Cells: Drosophila S2-derived reporter cells
Reagent: long dsRNA against Drosophila genes, about 150-250 ng dsRNA per well (siRNA assay); about 80-120 ng (miRNA assay)
Timing: about 5 days (siRNA assay); about 4 days (miRNA assay)
Challenge: copper sulfate induction of reporters: 25 µM (siRNA assay); 200 mM stated (miRNA assay), 1-2 days before reading
Read-out: 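Dual luciferase assay: Renilla to firefly signal ratio in each well, scaled to the mean ratio of its plate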
Rule for the call: 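First-pass picks had plate-scaled ratios over 1.5 for the siRNA assay, over 1.6 for the miRNA assay, or under 0.6; two distinct dsRNAs had to score alike on retest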

predicted target	PubChem SID	stable assay Renilla, run 1 (luminescence)	stable assay firefly, run 1 (luminescence)
PH4alphaMP	SID104196823	6098	4.00e5
Hsp70Aa + Hsp70Bb + Hsp70Ba + 3 more	SID104195172	5198	3.57e5
CG34458	SID104186717	6495	2.73e5
vis + achi	SID104187069	7374	4.10e5
CG6678	SID104195884	10098	4.29e5
CG4259	SID104180437	7868	4.24e5
CG32191	SID104190314	7892	3.27e5
Cpr65Az	SID104189674	8024	6.31e5
Cpr65Az	SID104201633	9250	5.62e5
CG12708	SID104199282	4491	4.45e5
CG2017	SID104192085	8520	3.82e5
Snap24	SID104196656	6635	4.06e5
Cln7	SID104190797	6930	3.68e5
karr	SID104200473	6426	4.88e5
ND2 (retired record)	SID104201066	3331	3.50e5
Rilpl	SID104198286	7762	5.73e5
CG6296	SID104195805	8611	4.58e5
Ance-2	SID104182331	7311	3.31e5
CG34370	SID104183705	6826	5.09e5
CG34370	SID104183934	7115	3.94e5
CG34370	SID104183935	7166	4.42e5
CG34370	SID104183936	7960	3.92e5
CG4238	SID104179882	6063	4.54e5
CG4238	SID104180436	7398	5.54e5
CG15765	SID104197863	6866	2.76e5
CG15765	SID104202383	3911	2.77e5
bb8	SID104195370	7010	3.42e5
CG5946	SID104190352	7451	4.51e5
CG7457	SID104190641	6992	3.94e5

Reformatted: entries from further up
CG2017 [SID104192085] — stable assay Renilla, run 1 (luminescence) = 8520; stable assay firefly, run 1 (luminescence) = 3.82e5
Snap24 [SID104196656] — stable assay Renilla, run 1 (luminescence) = 6635; stable assay firefly, run 1 (luminescence) = 4.06e5
Cln7 [SID104190797] — stable assay Renilla, run 1 (luminescence) = 6930; stable assay firefly, run 1 (luminescence) = 3.68e5
karr [SID104200473] — stable assay Renilla, run 1 (luminescence) = 6426; stable assay firefly, run 1 (luminescence) = 4.88e5
ND2 (retired record) [SID104201066] — stable assay Renilla, run 1 (luminescence) = 3331; stable assay firefly, run 1 (luminescence) = 3.50e5
Rilpl [SID104198286] — stable assay Renilla, run 1 (luminescence) = 7762; stable assay firefly, run 1 (luminescence) = 5.73e5
CG6296 [SID104195805] — stable assay Renilla, run 1 (luminescence) = 8611; stable assay firefly, run 1 (luminescence) = 4.58e5
Ance-2 [SID104182331] — stable assay Renilla, run 1 (luminescence) = 7311; stable assay firefly, run 1 (luminescence) = 3.31e5
CG34370 [SID104183705] — stable assay Renilla, run 1 (luminescence) = 6826; stable assay firefly, run 1 (luminescence) = 5.09e5

More records:
predicted target	PubChem SID	stable assay Renilla, run 1 (luminescence)	stable assay firefly, run 1 (luminescence)
l(1)G0004	SID104200278	8215	5.21e5
CG30273	SID104201635	9309	4.66e5
Gbp3	SID104194998	6931	3.35e5
GILT2	SID104193988	8553	2.95e5
Tom40	SID104198588	6059	4.33e5
lectin-37Da	SID104183070	4631	3.46e5
lectin-37Da	SID104202107	4576	6.14e5
CG7582	SID104196053	7682	4.56e5
Spn38F	SID104183408	6742	4.37e5
dao	SID104181752	7283	3.99e5
robl37BC	SID104182264	6855	4.48e5
CG15877	SID104188277	6472	3.90e5
rk	SID104183394	6382	3.20e5
CG4911	SID104190248	9124	5.14e5
CG13561	SID104183991	6155	3.83e5
t-Grip84	SID104190696	6103	3.88e5
CG32576 + UQCR-14	SID104199662	4120	3.54e5
Psa	SID104187944	13567	4.29e5
Or94a	SID104196564	6370	2.64e5
CG12911	SID104186018	5860	3.27e5
CG13634	SID104194427	6619	3.31e5
CG3792	SID104182517	8483	4.55e5
alpha-Est5	SID104192409	7891	4.87e5
Ugt35E2	SID104195875	4863	3.48e5
Lsd-2	SID104199935	7954	3.83e5
CG1492	SID104199397	5636	4.00e5
stum	SID104184060	8207	4.54e5
stum	SID104184062	8074	5.11e5
